± gives the standard deviation of the averaged measurements. The list shows a part of the results. The data scatter; read single values as rough.
Tests used:
Settings in all cases: 10 µM
[1] = system: Plasmodium vivax liver stage (primary human hepatocyte culture); test: hypnozoite quantity inhibition (% inhibition); higher = more active against hypnozoites
[2] = system: Plasmodium vivax liver stage (primary human hepatocyte culture); test: schizont net growth area inhibition (% inhibition); higher = more active against liver schizonts
[3] = system: primary human hepatocytes; test: hepatic nuclei reduction relative to DMSO (100 - % of negative control); higher = more toxic to hepatocytes
[4] = assay mode: Prophylactic (treated before or shortly after infection), fixed day 6 post-infection
[5] = assay mode: Radical Cure (treated from day 5 post-infection for 3 days), fixed day 8 post-infection

Row | SMILES | hypnozoite quantity inhibition [1, 4] | hypnozoite quantity inhibition [1, 5] | schizont net growth area inhibition [2, 4] | schizont net growth area inhibition [2, 5] | hepatic nuclei reduction [3, 4] [%] | hepatic nuclei reduction [3, 5] [%]
1 | COc1ccc2c(c1)OC(O)(C(F)(F)C(F)(F)F)CC2=O (centres undefined) | 32.9 | -6.2 | 32.1 | -67.4 | -5 | -8
2 | COc1ccc(-c2nc3cc(Cc4ccc5[nH]c(-c6ccc(OC)cc6)nc5c4)ccc3[nH]2)cc1 | 1.7 | 15.3 | 35.9 | -21 | 21 | -6
3 | CCc1nc2ccc(Cl)cn2c1C(=O)NCc1ccc(N2CCC(c3ccc(OC(F)(F)F)cc3)CC2)cc1 | -14 | -38 | 9.1 | -82.8 | -13 | -1
4 | CCCn1c(NC(=O)c2ccc3ccccc3n2)nc2ccccc21 | 22 | -25 | -19 | 22 | 1 | -5
5 | O=C(Nc1cccc(Cl)c1)c1cnc(N2CCN(c3ccncc3)CC2)c(Cl)c1 | -35 | -20 | 77.4 | -28.9 | 8 | -4
6 | CCN(CC)C(=O)N1CCN(C)CC1 | 12 | -34 | -20.9 | -4.6 | -10 | 3
7 | CCc1ccc(CNCC(O)c2ccccc2)cc1 (centres undefined) | 7.6 | -22.6 | 14.9 | -73.2 | 0 | -15
8 | O=C(NCCN1CCCC1)c1cc(NCCCCN2CCC(F)(F)CC2)nc2ccc(Cl)cc12 | 94 | -36 | 102 | 79.9 | 1 | 3
9 | O=C(C1CCN(c2nnnn2-c2ccccc2)CC1)N1CCc2ccccc2C1 | -49 | -8 | 31.6 | -1.4 | -6 | 6
10 | c1ccc(C[C@@H]2CN(c3nccc(Oc4ccc(-n5ccnc5)cc4)n3)CCN2)cc1 | 10 | -62 | 47 | -146 | -5 | -6
11 | COc1ccc2nc(C)cc(OCC(=O)Nc3ccccc3OC)c2c1 | -16 | -18 | 35.6 | -135 | -4 | -5
12 | COc1cccc(C2(C)Nc3ccccc3-c3nc4ccccc4n32)c1 (centres undefined) | -8.8 | 37.4 | 10.7 | 19.8 | -1 | -2
13 | CSC1=NC(=Nc2c(C)cccc2C)C2(CCC(C(C)(C)C)CC2)N1c1ccc(Cl)cc1 (centres undefined) | -26.6 | 42.7 | 76.6 | -10.4 | -10 | -6
14 | CC1CCN(Cc2c(O)ccc3cc(-c4nc5ccccc5s4)c(=O)oc23)CC1 | -11 | 42.7 | 37.5 | -51 | -30 | -14
15 | NCCC(O)C(=O)N[C@@H]1C[C@H](N)[C@@H](OC2O[C@H](CN)[C@@H](O)[C@H](O)[C@H]2O)[C@H](O)C1OC1O[C@H](CO)[C@@H](O)[C@H](N)[C@H]1O (some centres undefined) | -47 | -34 | -68.6 | 21.4 | -11 | 3
16 | O=C1c2ccc3c4c(ccc(c24)C(=O)N1CCCCO)C(=O)N(CCCCO)C3=O | 31.4 | 74.8 | 75.7 | 85.4 | 1 | 2
17 | COc1cc(C2=NCCN2)ccc1-n1cc(-c2cccc(C3=NCCN3)c2)nn1 | -11 | 9 | -19.4 | 38.6 | 1 | 0
18 | COc1ccc(C2Sc3ccccc3N=C3C2=C(O)c2ccccc23)cc1 (centres undefined) | -31 | 61.1 | 53.5 | 34.6 | -11 | -8
19 | CCN(CC)CCNc1ncnc2c1[nH]c1ccc(Br)cc12 | 10.1 | 45.5 | 2.1 | -76.1 | -1 | -8

Row | SMILES | hypnozoite quantity inhibition [1, 4] | hypnozoite quantity inhibition [1, 5] | schizont net growth area inhibition [2, 4] | schizont net growth area inhibition [2, 5] | hepatic nuclei reduction [3, 4] [%] | hepatic nuclei reduction [3, 5] [%]
20 | Cc1nn2c(O)c3c(nc2c1-c1ccc(F)cc1)CCCC3 | 32 | -4 | 20.9 | -93.2 | -6 | -13
21 | COc1ccc(-c2nn(C(C)C)c3ncnc(N)c23)cc1OC | 94 | -4 | 102 | 107 | 9 | -9
22 | Cc1ccc(-c2cc(C(=O)Nc3cccnc3)c3cc(Br)ccc3n2)cc1 | -3 | -36 | -69.9 | -12.5 | -10 | -1
23 | CC1CCN(Cc2ccc(NC(=O)c3cc4ccc5cccnc5c4[nH]3)cc2)CC1 | 2.5 | -52.5 | 63.4 | -103 | -6 | -6
24 | CC(C)(C)c1cc(C(=O)N2CCN(c3nccnc3C#N)CC2)n(Cc2ccccc2)n1 | 27 | -25 | 26.4 | -187 | 7 | 3
25 | COCCNC(=O)c1ccc(OC2CCN(Cc3ccc(F)c(F)c3)CC2)c(Cl)c1 | -13.2 | 38.2 | 45.2 | 37.8 | -16 | 0
26 | O=C(Nc1ccc(Cl)c(Cl)c1)Nc1ccc(Cl)c(Cl)c1 | 32.2 | 53.7 | 45 | -7.4 | 2 | -4
27 | OC(CNC1CCCC1)Cn1c2ccccc2c2ccccc21 (centres undefined) | 69.5 | 29.2 | 45.8 | -51.1 | 6 | -8
28 | CCOC(=O)c1ccc2nc(-c3ccccc3)cc(O)c2c1 | -13.9 | 31.3 | 7.4 | 14.6 | -13 | 3
29 | CCOc1ccc(-n2cc(-c3ccccc3)c3c(SCc4cc(C)ccc4C)ncnc32)cc1 | -8 | 40.5 | -47.9 | 72.7 | -3 | 17
30 | COc1ccccc1N1C(=N)SC(=Cc2ccc(OCc3ccccc3F)cc2)C1=O | -14.7 | 31.3 | -63.5 | 54 | -9 | -5
31 | COc1ccc(CCN2CCC(NCc3cccc(N(C)C)c3)CC2)cc1 | 15 | -4 | 35.5 | -4.7 | 1 | -1
32 | O=C(NCCc1ccccc1)c1cc(-c2cccnc2)cnc1NCC1CC1 | 31 | -36 | 42.5 | 46.5 | -1 | -6
33 | Cc1cc(Nc2ccc(C)c(Cl)c2)n2nc(C(F)(F)F)nc2n1 | -31 | 42.7 | 55.2 | 52.2 | -4 | -4
34 | CC(=O)N(O)CCCCCNC(=O)CCC(=O)N(O)CCCCCNC(=O)CCC(=O)N(O)CCCCCN | -48 | 4.4 ± 26 | 98.7 | 2.1 ± 47 | -4 | -8 ± 9.9
35 | CCC(NC(=O)c1ccccc1NC(=O)c1ccc(C)cc1)C(=O)OC (centres undefined) | -17 | -39 | 21.8 | 2 | -11 | -4
36 | CCOc1c(Br)cc(C2C(C(=O)OC)=CN(C)C=C2C(=O)OC)cc1OC | -11.7 | 35.9 | 24.5 | 50.9 | -14 | -5
37 | Cc1ccc(N2C3c4ccccc4N(S(=O)(=O)c4ccc(C)cc4)C2c2ccccc2N3S(=O)(=O)c2ccc(C)cc2)cc1 | -6.5 | 29 | 11.5 | 40.4 | -6 | -2
38 | CNc1snc(C)c1C(=O)NCCOc1ccc(OC)cc1 | -41 | 6 | 65.9 | -116 | -9 | 0

Single records, from the list above. Order of values: hypnozoite quantity inhibition [1, 4]	hypnozoite quantity inhibition [1, 5]	schizont net growth area inhibition [2, 4]	schizont net growth area inhibition [2, 5]	hepatic nuclei reduction [3, 4] [%]	hepatic nuclei reduction [3, 5] [%]
CCOc1c(Br)cc(C2C(C(=O)OC)=CN(C)C=C2C(=O)OC)cc1OC in the list: -11.7	35.9	24.5	50.9	-14	-5
CC(C)(C)c1cc(C(=O)N2CCN(c3nccnc3C#N)CC2)n(Cc2ccccc2)n1 in the list: 27	-25	26.4	-187	7	3
O=C(NCCc1ccccc1)c1cc(-c2cccnc2)cnc1NCC1CC1 in the list: 31	-36	42.5	46.5	-1	-6

Additional compounds.

Row | SMILES | hypnozoite quantity inhibition [1, 4] | hypnozoite quantity inhibition [1, 5] | schizont net growth area inhibition [2, 4] | schizont net growth area inhibition [2, 5] | hepatic nuclei reduction [3, 4] [%] | hepatic nuclei reduction [3, 5] [%]
39 | Cc1ccc(N2C(=O)C3C(C2=O)C2(c4ccccc4)C(=O)C3(c3ccccc3)C(c3ccccc3)=C2c2ccccc2)cc1 (centres undefined) | -8 | 38.2 | 14.3 | 31.3 | -13 | 12
40 | CC1CCCCN1CCCNC(=O)c1ccc2c(c1)sc1nc(-c3ccc(F)cc3)cn12 (centres undefined) | -16.2 | 22.1 | -21.2 | 51.9 | -3 | 5
41 | CCOc1ccc2cc(-c3nn(CC4CCN(C)CC4)c4ncnc(N)c34)ccc2c1 | -21 | -38 | 45.6 | -55 | 1 | 2
42 | CCOc1ccc(-c2nonc2NC(=O)c2cccc(C)c2)cc1OCC | 37.9 | 48.2 | 67.8 | 41.5 | 8 | -4
43 | CCCN(CCC)CCCNC(=O)c1cc2c(-c3ccc(OC)c(OC)c3)nn(C)c2s1 | 8.8 | 21 | 42.5 | 9.9 | 4 | -1
44 | CC(=O)Oc1ccccc1C(=O)Nc1ncc([N+](=O)[O-])s1 | 5 | -4 | 15.3 | -3.7 | -2 | -7
45 | Clc1ccc2c(N3CCN(CCCN4CCN(c5ccnc6cc(Cl)ccc56)CC4)CC3)ccnc2c1 | -5 | 10 | -93 | 7.6 | -8 | -2
46 | COc1ccc(C=C2SC(=N)N(c3ccccc3OC)C2=O)cc1 | -40 | 24.4 | -120 | -18.2 | -12 | -3
47 | COc1cc(OC)cc(C(=O)Nc2ccc(-c3nc4ccccc4[nH]3)cc2)c1 | – | – | – | – | -14 | 7
48 | COc1ccc(C2=NN(C3CCCCCC3)C(=O)C2(C)C)cc1OCc1ccccn1 | – | – | – | – | 0 | -5
49 | CC(C)(C)c1ccc(C2CC3=Nc4ccccc4N(C(=O)c4ccccc4Cl)C(c4ccc(F)cc4)C3=C(O)C2)cc1 (centres undefined) | 18.8 | 38.2 | -3.9 | -62 | -8 | 4
50 | CCOC(=O)c1cnc2ccc(OC)cc2c1NCc1ccccc1 | 11.4 | -0.8 | 26.2 | -25 | -2 | -4
51 | O=C(CCl)NCCOc1ccc(Cl)cc1Cl | -25.8 | 56.5 | 27.2 | -37.8 | -13 | 1
52 | COc1ccc2sc(N(Cc3cccnc3)C(=O)c3ccc(C#N)cc3)nc2c1 | 14.5 | 31.9 | 43 | -22.8 | -4 | -8
53 | O=C(Nc1ccc(F)c(Cl)c1)Nc1ccc(Cl)c(Cl)c1 | 7.6 | 51 | 34.5 | -0.4 | 5 | -5
54 | CSc1ccccc1C(=O)Nc1nc(-c2ccccn2)cs1 | 53.1 | 45.5 | 85.5 | 18 | -3 | 2
55 | CCc1c(C)nc(-n2nc(C)cc2NC(=O)c2ccccc2SC)[nH]c1=O | 21 | 6 | 0.9 | -14 | 10 | 2
56 | CNc1nnc(Sc2cnn(-c3ccccc3)c(=O)c2Cl)s1 | 17 | -83 | -71.8 | 25.4 | 14 | 10
57 | Cc1cc(NCC(C)C)c2n[nH]c(-c3ccccc3)c2n1 | 22 | 11 | 3.7 | -20.4 | 1 | -2

Reference: the supplement of paper PMC8497498
